Results from PMC7463734, “Identification and Validation of an Aspergillus nidulans Secondary Metabolite Derivative as an Inhibitor of the Musashi-RNA Interaction” (Cancers, 2020).
Construct, isoform or probe ends are uncertain for at least one entry. For some assays here: At least one result comes from cells or an extract, where the contact may be indirect. For some assays here: At least one verdict was read from the data and is not stated in words by the source. For some assays here: Tags and fusion partners may be left off the protein sequences shown.

Chains of the proteins cited; added tags and fusions are not shown. Lines headed by an entry give the natural chain unless they say otherwise; changes in a name come on top.
UniProt O43347: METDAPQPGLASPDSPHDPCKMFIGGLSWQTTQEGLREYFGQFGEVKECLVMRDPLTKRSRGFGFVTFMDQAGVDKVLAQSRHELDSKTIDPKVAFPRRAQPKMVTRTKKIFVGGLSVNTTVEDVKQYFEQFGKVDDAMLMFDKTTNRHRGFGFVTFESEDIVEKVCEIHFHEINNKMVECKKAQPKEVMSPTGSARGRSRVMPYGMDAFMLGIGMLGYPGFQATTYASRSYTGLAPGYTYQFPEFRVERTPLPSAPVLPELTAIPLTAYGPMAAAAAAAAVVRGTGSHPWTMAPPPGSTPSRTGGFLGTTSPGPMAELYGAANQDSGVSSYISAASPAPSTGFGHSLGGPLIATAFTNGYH

Legend:
[1] = target: MSI1 (HCT-116 β/W cell lysate) (Homo sapiens) (UniProt O43347); experiment: competition with a labelled probe; conditions: pull-down, abolishes Numbbiotin-MSI1 binding; protein in an extract
MSI2-RBD1 = target: T1, MSI2-RBD1 (UniProt Q96DH6); experiment: fluorescence polarization; conditions: binding disrupted by Aza-9; FP with 2 nM FITC-RNA; 0-2% DMSO had no significant effect (2 h incubation); pH and temperature not given (cited to earlier publications); recombinant protein; label: 3'-FITC
T1 sequence (looked up, limits assumed): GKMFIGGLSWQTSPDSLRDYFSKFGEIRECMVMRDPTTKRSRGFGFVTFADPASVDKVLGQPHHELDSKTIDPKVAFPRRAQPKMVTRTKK

| Sequence | binding result [1] | binding result (MSI2-RBD1) |
| --- | --- | --- |
| UAGGUAGUAGUUUUA [Numb RNA, unlabeled] | binds |  |
| UAGGUAGUAGUUUUA [NumbFITC RNA] |  | binds |
